# These are yes or no findings as the source states them, for the method shown. Binding seen in cells or lysates may run through a third protein. Some binding calls cover weakened binding; strength is not graded here. Where a sequence is shown, tags or fusion partners need not be part of it.
# The chains behind the UniProt entries cited, without tags or fusion partners.
# UniProt P46934: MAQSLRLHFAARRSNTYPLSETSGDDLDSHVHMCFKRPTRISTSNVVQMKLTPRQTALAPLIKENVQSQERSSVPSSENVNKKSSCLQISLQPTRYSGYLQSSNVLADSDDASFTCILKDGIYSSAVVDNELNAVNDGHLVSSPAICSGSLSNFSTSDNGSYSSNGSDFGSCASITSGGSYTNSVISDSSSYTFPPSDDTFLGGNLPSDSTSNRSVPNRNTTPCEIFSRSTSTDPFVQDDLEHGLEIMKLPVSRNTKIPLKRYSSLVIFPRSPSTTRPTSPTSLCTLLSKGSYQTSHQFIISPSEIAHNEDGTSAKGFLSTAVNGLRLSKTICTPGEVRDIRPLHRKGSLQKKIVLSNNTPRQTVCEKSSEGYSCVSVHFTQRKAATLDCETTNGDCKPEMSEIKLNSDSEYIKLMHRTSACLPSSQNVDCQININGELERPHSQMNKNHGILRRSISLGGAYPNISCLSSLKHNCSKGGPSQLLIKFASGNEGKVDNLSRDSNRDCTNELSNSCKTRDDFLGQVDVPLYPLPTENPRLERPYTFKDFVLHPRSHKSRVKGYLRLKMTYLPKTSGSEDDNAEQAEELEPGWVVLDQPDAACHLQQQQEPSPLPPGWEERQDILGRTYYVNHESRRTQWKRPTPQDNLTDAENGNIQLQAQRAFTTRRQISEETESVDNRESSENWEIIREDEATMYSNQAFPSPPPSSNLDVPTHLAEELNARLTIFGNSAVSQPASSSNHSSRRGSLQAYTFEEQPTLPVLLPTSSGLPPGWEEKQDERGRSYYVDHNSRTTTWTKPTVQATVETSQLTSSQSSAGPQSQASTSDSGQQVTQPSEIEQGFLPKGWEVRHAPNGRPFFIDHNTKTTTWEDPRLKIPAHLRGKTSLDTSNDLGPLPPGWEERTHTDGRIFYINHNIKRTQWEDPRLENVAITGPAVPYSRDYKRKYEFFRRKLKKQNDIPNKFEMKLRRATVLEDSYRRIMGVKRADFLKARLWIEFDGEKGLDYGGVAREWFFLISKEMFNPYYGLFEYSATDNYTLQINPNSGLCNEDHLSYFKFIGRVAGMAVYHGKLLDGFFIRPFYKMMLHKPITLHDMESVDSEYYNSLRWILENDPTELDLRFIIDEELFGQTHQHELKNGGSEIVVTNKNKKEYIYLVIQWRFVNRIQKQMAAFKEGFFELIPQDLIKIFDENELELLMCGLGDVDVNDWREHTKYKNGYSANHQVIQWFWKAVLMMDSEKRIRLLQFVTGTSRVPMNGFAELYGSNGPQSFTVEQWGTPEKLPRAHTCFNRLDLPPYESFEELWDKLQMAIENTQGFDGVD
# Target: T1, LCMV Z WT with a C-terminal streptavidin binding peptide (SBP) tag (LCMV) (UniProt P18541)
# T1 sequence: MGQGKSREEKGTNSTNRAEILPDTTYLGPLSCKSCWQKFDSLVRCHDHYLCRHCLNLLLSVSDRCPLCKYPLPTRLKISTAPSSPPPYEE
# Assay: pull-down
row,Substance,binding
1,ATP5B (from UniProt P06576 48-529),binds
2,IMPDH2 (from UniProt P12268 1-514) (enzyme),binds
3,Nedd4 (from UniProt P46934 1-1319) (enzyme),binds

# Reference: paper PMC6874086
